From publication PMC9749463 (European Journal of Pharmacology, 2021) come the findings set out here.

Protein sequences, listed by entry. Tags and fused reporters are not part of them.
UniProt Q14524, whole entry: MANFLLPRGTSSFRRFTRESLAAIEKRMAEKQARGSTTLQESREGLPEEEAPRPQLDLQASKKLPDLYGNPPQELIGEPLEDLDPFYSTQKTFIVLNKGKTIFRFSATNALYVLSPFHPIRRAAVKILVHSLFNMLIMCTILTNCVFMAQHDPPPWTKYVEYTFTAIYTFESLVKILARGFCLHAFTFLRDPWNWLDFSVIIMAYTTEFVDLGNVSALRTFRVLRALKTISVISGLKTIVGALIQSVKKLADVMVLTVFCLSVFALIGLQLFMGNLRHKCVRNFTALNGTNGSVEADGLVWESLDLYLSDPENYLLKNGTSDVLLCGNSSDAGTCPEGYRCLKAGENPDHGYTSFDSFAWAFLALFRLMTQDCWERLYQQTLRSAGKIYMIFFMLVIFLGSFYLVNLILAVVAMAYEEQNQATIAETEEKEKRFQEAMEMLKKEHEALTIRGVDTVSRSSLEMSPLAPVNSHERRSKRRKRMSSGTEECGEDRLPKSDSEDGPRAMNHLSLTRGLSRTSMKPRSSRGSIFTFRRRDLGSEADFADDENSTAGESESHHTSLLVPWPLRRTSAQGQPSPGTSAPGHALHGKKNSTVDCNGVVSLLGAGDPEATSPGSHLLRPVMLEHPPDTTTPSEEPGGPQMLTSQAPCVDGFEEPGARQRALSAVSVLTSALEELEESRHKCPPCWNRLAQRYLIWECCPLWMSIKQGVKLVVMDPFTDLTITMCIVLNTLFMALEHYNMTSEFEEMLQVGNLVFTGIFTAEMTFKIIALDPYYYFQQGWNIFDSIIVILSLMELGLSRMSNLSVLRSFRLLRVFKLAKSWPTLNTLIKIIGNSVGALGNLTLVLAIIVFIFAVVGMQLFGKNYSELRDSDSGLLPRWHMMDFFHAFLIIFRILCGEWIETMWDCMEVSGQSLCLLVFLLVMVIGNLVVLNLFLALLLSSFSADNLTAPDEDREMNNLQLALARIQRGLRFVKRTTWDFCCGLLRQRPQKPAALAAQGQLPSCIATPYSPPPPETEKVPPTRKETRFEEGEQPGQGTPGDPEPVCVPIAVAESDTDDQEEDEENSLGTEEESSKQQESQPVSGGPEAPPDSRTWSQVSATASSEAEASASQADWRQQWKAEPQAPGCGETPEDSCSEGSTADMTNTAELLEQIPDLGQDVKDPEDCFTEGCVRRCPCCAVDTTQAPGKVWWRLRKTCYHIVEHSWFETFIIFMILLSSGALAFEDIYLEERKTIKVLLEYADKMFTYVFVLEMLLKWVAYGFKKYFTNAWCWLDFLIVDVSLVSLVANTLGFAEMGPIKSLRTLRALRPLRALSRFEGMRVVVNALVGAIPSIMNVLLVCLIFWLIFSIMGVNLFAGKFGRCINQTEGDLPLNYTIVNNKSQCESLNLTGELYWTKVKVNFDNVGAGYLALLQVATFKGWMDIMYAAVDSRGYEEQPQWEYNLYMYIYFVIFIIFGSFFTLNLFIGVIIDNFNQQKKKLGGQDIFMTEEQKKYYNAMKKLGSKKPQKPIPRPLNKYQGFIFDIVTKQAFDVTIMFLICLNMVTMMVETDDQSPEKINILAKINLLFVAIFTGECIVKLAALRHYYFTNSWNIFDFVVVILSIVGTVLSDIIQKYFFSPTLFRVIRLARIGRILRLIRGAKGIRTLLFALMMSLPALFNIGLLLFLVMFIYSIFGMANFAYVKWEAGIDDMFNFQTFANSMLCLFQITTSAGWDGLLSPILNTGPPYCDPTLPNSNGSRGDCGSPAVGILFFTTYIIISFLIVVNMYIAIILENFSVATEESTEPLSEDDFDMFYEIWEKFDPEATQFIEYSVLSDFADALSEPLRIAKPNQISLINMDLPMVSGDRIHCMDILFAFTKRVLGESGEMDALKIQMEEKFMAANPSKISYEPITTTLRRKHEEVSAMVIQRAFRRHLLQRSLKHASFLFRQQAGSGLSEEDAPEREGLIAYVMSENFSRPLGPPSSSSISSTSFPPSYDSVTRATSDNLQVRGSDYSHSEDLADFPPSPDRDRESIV

The assay has as its target NaV1.5 (Homo sapiens, UniProt Q14524). The assay can be described thus: automated patch-clamp. Format: cell-based. The conditions noted are these: lidocaine 3 mM. In general terms: The patch-clamp technique gives a direct electrical read-out from membranes.

Turning to `CCN(CC)CC(=O)Nc1c(C)cccc1C` [lidocaine, reference compound], the “effect on NaV1.5 currents” value is recorded as “abolished all currents”.
